# PubChem BioAssay AID686938, Drosophila RNAi Screening Center | 2013
# Test: 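Knock-downs reducing store-operated calcium influx in Drosophila cells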 (primary screen)
# System: Drosophila S2R+ cells
# Reagent: long dsRNA against Drosophila genes, about 0.25 µg dsRNA per well, roughly 10,000 cells
# Time to read-out: 5 days of knock-down before the calcium assay
# Conditions: thapsigargin (SERCA pump blocker) to empty calcium stores; entry signal taken 4 min after adding it
# Measured: 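Per-well fluo-4 fluorescence in two replicates, unnormalised, measured in resting cells and 4 min after store depletion by the SERCA blocker thapsigargin; ratio of the two present in few wells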
# Reading the numbers: calcium entry signal: higher = stronger calcium signal after store depletion; entry to resting ratio: higher = more calcium entry relative to resting level; resting calcium signal: higher = higher resting calcium signal
# Rule for the call: 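Called when the plate z-score of the entry-to-rest ratio, mean of duplicates, falls below −3; wells with low overall dye signal (Fmax z below −2) or more than five off-targets excluded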
# Calls: active = strongly reduced calcium entry; inactive = no strong reduction
# The screen tested about 23,000 reagents; shown is a random part of those that have a named target and a result. In the full data, 75 (0.33%) are marked active. 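Raw plate signals without normalisation; calls rest on plate z-scores that were not deposited; ratio present for only 364 wells.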 Entries without a mark were called inactive. No sequences are given here. Not given: the dose of the treatment.
target gene,amplicon,"calcium entry signal, replicate 1 (fluorescence units)","calcium entry signal, replicate 2 (fluorescence units)",entry to resting ratio,"resting calcium signal, replicate 1 (fluorescence units)","resting calcium signal, replicate 2 (fluorescence units)"
mRpL49,DRSC19908,4.18e7,4.98e7,,1.93e7,2.25e7
CG3927,DRSC04433,3.43e7,3.48e7,,1.82e7,1.48e7
CG3927,DRSC22813,3.27e7,3.73e7,,1.62e7,2.07e7
CG15044,DRSC19620,3.68e7,3.16e7,,1.89e7,1.52e7
CG15044,DRSC21385,4.02e7,3.09e7,,2.29e7,1.53e7
CtsL1,DRSC05462,3.86e7,5.79e7,,2.30e7,2.43e7
CtsL1,DRSC07363,3.28e7,3.32e7,,1.46e7,1.41e7
Mrgn1,DRSC20223,3.81e7,4.11e7,,1.78e7,2.03e7
Ctu1,DRSC07069,2.97e7,3.50e7,,1.41e7,1.54e7
TfIIA-L,DRSC16882,2.20e7,2.88e7,,1.17e7,1.47e7
ihog,DRSC03157,3.94e7,,,2.16e7,
Ublcp1,DRSC14149,4.43e7,3.88e7,,2.34e7,1.82e7
speck,DRSC04608,4.29e7,,,2.23e7,
CG5721,DRSC06945,3.80e7,3.46e7,,1.83e7,1.73e7
CG5065,DRSC06912,5.63e7,6.08e7,,2.43e7,3.00e7
CG12985,DRSC19505,3.01e7,2.87e7,,1.58e7,1.44e7
rst,DRSC17243,4.60e7,4.76e7,,2.45e7,2.11e7
rst,DRSC18828,5.03e7,6.47e7,2.1,2.40e7,2.80e7
UQCR-6.4,DRSC06454,4.49e7,5.71e7,,1.84e7,2.59e7
Atg6,DRSC15798,3.65e7,3.64e7,,1.85e7,1.61e7
Sema2a,DRSC07551,3.52e7,3.19e7,,1.67e7,1.78e7
CG30403,DRSC03889,3.81e7,6.10e7,,1.71e7,2.94e7
CG46441,DRSC15561,3.68e7,3.88e7,,1.86e7,1.73e7
CG6508,DRSC02963,2.87e7,3.36e7,,1.31e7,1.51e7

An excerpt of the results above, as a working copy:
target gene,amplicon,"calcium entry signal, replicate 1 (fluorescence units)","calcium entry signal, replicate 2 (fluorescence units)",entry to resting ratio,"resting calcium signal, replicate 1 (fluorescence units)","resting calcium signal, replicate 2 (fluorescence units)"
Atg6,DRSC15798,3.65e7,3.64e7,,1.85e7,1.61e7
Sema2a,DRSC07551,3.52e7,3.19e7,,1.67e7,1.78e7
CG30403,DRSC03889,3.81e7,6.10e7,,1.71e7,2.94e7
